Test results as given in PMC9130538, “Amino acids in transmembrane helix 1 confer major functional differences between human and mouse orthologs of the polyspecific membrane transporter OCT1” (The Journal of Biological Chemistry, 2022).

Assays:
[1] = target: T1, human OCT1 (Homo sapiens, UniProt O15245); experiment: Cellular uptake by HEK293 cells overexpressing human OCT1 (wildtype)
T1 sequence (O15245 1-554): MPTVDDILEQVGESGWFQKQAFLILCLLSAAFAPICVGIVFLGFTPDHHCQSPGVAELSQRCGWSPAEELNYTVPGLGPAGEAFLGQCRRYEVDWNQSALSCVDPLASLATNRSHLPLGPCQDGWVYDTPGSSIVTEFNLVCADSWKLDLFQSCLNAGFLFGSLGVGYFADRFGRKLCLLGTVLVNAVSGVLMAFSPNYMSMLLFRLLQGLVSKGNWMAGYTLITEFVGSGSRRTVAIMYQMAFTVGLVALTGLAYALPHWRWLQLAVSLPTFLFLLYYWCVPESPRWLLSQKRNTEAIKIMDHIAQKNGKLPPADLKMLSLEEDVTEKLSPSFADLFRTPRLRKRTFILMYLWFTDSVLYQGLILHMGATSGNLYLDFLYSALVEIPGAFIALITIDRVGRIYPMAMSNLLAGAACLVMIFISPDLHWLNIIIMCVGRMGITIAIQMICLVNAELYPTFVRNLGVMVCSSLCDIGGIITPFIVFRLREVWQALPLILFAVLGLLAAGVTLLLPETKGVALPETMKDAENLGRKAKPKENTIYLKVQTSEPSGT
Procedure: (§1) Generation and characterization of these cell lines has been described in detail before ([34], [48], [49]). Cells were cultured in Dulbecco’s Modified Eagle’s Medium supplemented with 10% fetal bovine serum, 100 U/ml penicillin, and 100 μg/ml streptomycin at 37 °C and 5% CO2 and were passaged twice a week.
(§2) At 48 h prior to the experiment, 6 × 10^5 cells were seeded per well in 12-well plates. When using transiently transfected cells, 5 × 10^5 T-REx-293 cells (Life Technologies) were seeded per well in 12-well plates 72 h prior to the experiment, and they were transfected 24 h later as described previously. Twelve-well plates were precoated with poly-D-lysine.
(§3) Cellular uptake experiments were performed at 37 °C and pH 7.4 using HBSS supplemented with 10 mM Hepes (in the following referred to as HBSS+). […] Cells were washed twice with 2 ml ice-cold HBSS+ and lysed with 80% acetonitrile supplemented with internal standard, 0.1 N NaOH/0.1% SDS, or radioimmunoprecipitation buffer for LC–MS/MS, liquid scintillation counting, or fluorescence spectroscopy detection, respectively. Intracellular substrate concentrations were measured as described in the following and were then normalized to the amount of total protein in the samples as measured using the bicinchoninic acid assay ([51]). […]

[2] = target: T2, mouse Oct1 (Mus musculus, UniProt O08966); experiment: Cellular uptake by HEK293 cells overexpressing mouse Oct1 (wildtype)
T2 sequence (O08966 1-556): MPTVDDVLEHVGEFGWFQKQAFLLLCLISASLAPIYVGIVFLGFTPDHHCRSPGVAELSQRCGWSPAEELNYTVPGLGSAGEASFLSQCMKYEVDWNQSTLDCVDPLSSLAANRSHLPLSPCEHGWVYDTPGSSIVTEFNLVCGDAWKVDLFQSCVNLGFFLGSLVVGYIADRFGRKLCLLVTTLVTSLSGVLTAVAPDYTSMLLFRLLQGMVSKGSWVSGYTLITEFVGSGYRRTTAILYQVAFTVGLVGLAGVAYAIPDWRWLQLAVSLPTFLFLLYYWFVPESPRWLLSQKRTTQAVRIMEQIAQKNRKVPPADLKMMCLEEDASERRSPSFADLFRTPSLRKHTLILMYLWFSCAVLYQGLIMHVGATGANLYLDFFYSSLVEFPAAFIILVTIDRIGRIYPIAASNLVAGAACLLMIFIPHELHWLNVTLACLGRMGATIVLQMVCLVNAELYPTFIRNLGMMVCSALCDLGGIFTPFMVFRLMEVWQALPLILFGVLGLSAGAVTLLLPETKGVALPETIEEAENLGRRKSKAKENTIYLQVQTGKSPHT
Procedure: as §1, §2, §3

[3] = HEK293 stably transfected, 2 min uptake, 37 °C, pH 7.4, OCT1-mediated uptake

## CC(C)[N+]1(C)[C@@H]2CC[C@H]1C[C@@H](OC(=O)C(CO)c1ccccc1)C2 (stereo partly shown) [Ipratropium]
[1]; [3]
  vmax ± SD, hOCT1: 349 ± 53.9 pmol × min^−1 × mg protein^−1
[1]; human, pH 7.4
  CLint ± SD, hOCT1: 32.5 ± 3.06 μl × min^−1 × mg protein^−1
[2]; [3]
  vmax ± SD, mOct1: 192.9 ± 13.1 pmol × min^−1 × mg protein^−1
[2]; mouse, pH 7.4
  CLint ± SD, mOct1: 33.8 ± 10.3 μl × min^−1 × mg protein^−1
